# Patent US20220378816A1, “2-BENZYLIDENE HYDRAZINOADENOSINE COMPOUNDS HAVING A2A ADENOSINE RECEPTOR AGONISTIC ACTIVITY” (ACADEMY OF MILITARY MEDICAL SCIENCES, priority 2019, published 2022)
# At least one structure is not confirmed: it was looked up by name or label, or the drawing left a doubt.
# Molecular target: human adenosine receptor A2A (Homo sapiens, UniProt P29274)
# Experiment: Adenosine receptor A2A cAMP test (LANCE Ultra cAMP, hADORA2A-HEK293 cells)
# Assay type: cell-based
# Excerpt: Experimental reagents and consumables: DMEM/F12, G418, Penicillin-Streptomycin, Versene Solution, HEPES, Hank's Buffered Saline Solution, PBS (pH 7.4, 1×, sterile), FBS, BSA Stabilizer 7.5%, Rolipram, NECA were separately purchased from Gibico, Hyclone and Sigma. LANCE® Ultra cAMP kit (Eu-cAMP tracer, Ulight-anti-cAMP reagent, cAMP detection buffer) and hADORA2A-HEK293 cells were purchased from PerkinElmer Research Products (Boston, Mass.). All other reagents were of analytical grade and obtained from commercial sources. 384-well polypropylene microplate and 384-well solid white plate were purchased from Labcyte and Corning, respectively.
# The cells stably expressing human adenosine receptor A2A (hADORA2A-HEK293 cells) were cultured in DMEM/F12 medium containing 10% FBS, 1×Penicillin-Streptomycin and 400 μg/ml G418 in a 37° C. and 5% CO2 environment. […] The EnVision multimode plate reader (PerkinElmer) was used determine the level of cyclic adenosine monophosphate in the final solution (λex=320 nm, λem=665 nm & 615 nm). The EC50 (nM) value of the compound interacting with the A2A adenosine receptor to stimulate the production of cyclic adenosine monophosphate was calculated and the A2A receptor agonist titer of the compound was expressed as the EC50 (nM) value.
smiles,measurement,value
N#Cc1ccc(/C=N/Nc2nc(N)c3ncn([C@@H]4O[C@H](CO)C(O)C4O)c3n2)cc1 (stereo partly shown) [Compound 20],hA2AAR agonist function,shown as hA2AAR agonists
